Data: PMC8546600, “Chaperone Spy Protects Outer Membrane Proteins from Folding Stress via Dynamic Complex Formation” (mBio, 2021)
No constants are given. Whether binding was seen depends on the method and setting.

The chains behind the UniProt entries cited, without tags or fusion partners. Residues count along the entry.
UniProt P09169, residues 21-317: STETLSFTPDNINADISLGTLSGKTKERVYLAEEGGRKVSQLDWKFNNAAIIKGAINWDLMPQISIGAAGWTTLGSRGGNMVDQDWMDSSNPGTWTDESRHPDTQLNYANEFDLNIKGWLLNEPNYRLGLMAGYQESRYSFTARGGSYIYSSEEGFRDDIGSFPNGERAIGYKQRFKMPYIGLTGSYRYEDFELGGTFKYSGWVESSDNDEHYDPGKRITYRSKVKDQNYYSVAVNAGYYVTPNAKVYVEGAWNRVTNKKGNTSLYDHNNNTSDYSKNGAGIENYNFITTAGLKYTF

Biological target: His-OmpT (Escherichia coli) (UniProt P09169)
Experiment: other fluorescence titration; intrinsic tryptophan fluorescence of the OMP (0.4 uM) titrated with increasing Spy or Skp; 40 mM HEPES, 150 mM NaCl, 0.24 M urea, pH 7.5; 25 C; excitation 295 nm, emission 305-400 nm; both purified

B1: periplasmic chaperone Spy (natural protein, Escherichia coli, UniProt P77754 24-161, looked up)
chain: ADTTTAAPADAKPMMHHKGKFGPHQDMMFKDLNLTDAQKQQIREIMKGQRDQMKRPPLEERRAMHDIIASDTFDKVKAEAQIAKMEEQRKANMLAHMETQNKIYNILTPEQKKQFNANFEKRLTERPAAKGKMPATAE
notes: Spy, periplasmic chaperone of Escherichia coli; [U-2H,15N]-labelled in the HSQC experiment with unlabelled OmpX, unlabelled elsewhere; also called wild-type Spy; WT Spy; source: E. coli, from pET28b(+)-HisSUMO-spy, purified (6xHis-SUMO tag removed, cation exchange)
- binding: no binding
